Results are given in words; binding and its absence hold for the method and conditions named. In cells and extracts the contact can be indirect. Binding can be weak; no strength is given. Tags and fused reporters may be left off the sequences shown. Each block holds one binder with its values, some of them ahead of it.
Experiments:
[1] = molecular target: TN2-FLAGTEVZZ (Arabidopsis thaliana); assay: co-IP; FLAGTEVZZ-tagged bait co-expressed with a FLAG-tagged partner in N. benthamiana leaves, 48 h; how the bait was precipitated is not told
[2] = molecular target: HA-FLAG-SOC3 (Arabidopsis thaliana) (UniProt F4I901); assay: co-IP; proteins transiently co-expressed in N. benthamiana leaves, harvested after 48 h; GTEN buffer (25 mM Tris-HCl pH 7.5, 150 mM NaCl, 1 mM EDTA, 0.15% NP-40, 10 mM DTT); FLAG-tagged protein precipitated with anti-FLAG M2 beads, 3 h at 4 °C; western blot

binding [1]: binds
B1: DN-SUSA2-FLAG (protein, UniProt Q9FKT0)
chain: MILKKVWGSVWNRSNSGKDLVNHQRAIDVPPLLLSSSSSLQCSQEPWDSIFFAETSLRSGYPLRMISSQSGELSFMHIYSQRAQVPGSIIIDGGSGYCKFGWSKYASPSGRSATFLEFGNIESPIYARLQQFFATIFTRMQVKPSMQPIVVSLPLCHFDDTESAKASRRQLKTAIFNVLFDMNVPAVCAVNQAVLALYAARRTSGIVVNIGFQVITILPILHGKVMRQVGVEVIGFGALKLTGFLKEKMQENNISFQSLYTVRTLKEKLCYVALDYKAELSKDTQASVEVSGEGWFTLSKERFQTGEILFQPRLAGMRAMSLHQAVSLCMDHCDAAGLTGDDSWFKTVVLTGGSACLPGLSERLERELQDHLPSSISNGIRVIPPPYGVDTSWHGAKLISNLSIFPGPWCITRKQFRRKSRLMW

binding [2]: binds
B2: DN-SUSA2-Turbo-HA (protein, UniProt Q9FKT0)
chain: B1 chain

— PMC7562919
